Data: article PMC9928464
Results are given in words; binding and its absence hold for the method and conditions named. Binding seen in cells or lysates may run through a third protein. Some results given as binding are weak or reduced against the parent protein; the word gives no strength.

Amino acid sequences for entries named in this document (tags omitted). A change or cut given only in a name is not applied to a line headed by its entry. Residues count along the entry.
UniProt O14763, residues 56-240: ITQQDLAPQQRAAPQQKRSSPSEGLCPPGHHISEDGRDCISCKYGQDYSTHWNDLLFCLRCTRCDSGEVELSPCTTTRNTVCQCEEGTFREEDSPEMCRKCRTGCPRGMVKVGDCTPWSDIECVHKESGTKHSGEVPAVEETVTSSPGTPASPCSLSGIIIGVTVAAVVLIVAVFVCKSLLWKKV

Molecular target: DR5ΔCD (1–240), death receptor 5 without a cytoplasmic domain, fused to EGFP or TagRFP (UniProt O14763)
Experiment: FRET or BRET; time-resolved FRET (donor fluorescence lifetime, plate reader) in live HEK293 cells transiently expressing DR5ΔCD-GFP alone or DR5ΔCD-GFP with DR5ΔCD-RFP (1:6), no ligand; cells in PBS, room temperature; also treated with DMSO, bioymifi or nimesulide

## DR5ΔCD (1–240), death receptor 5 without a cytoplasmic domain, fused to EGFP or TagRFP (from UniProt O14763 56-240) (domain or fragment)
  binding: binds
